For 104 sequences, z-score results are on record in PubChem BioAssay AID1347423 (Functional Genomics Laboratory (NCATS/FGL), 2020).

In all, about 52,000 sequences went through this assay and about 210 (0.4%) were called active.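 The calls were made as follows: active = gene whose silencing raises cell survival under the drug, median off-target-corrected z-score across its silencing RNAs 2 or more; inactive = the rest.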 Some of the results follow.

The test in a line: Resistance to Poly (ADP-Ribose) Polymerase inhibitor: Gene Identification via Genome-wide siRNA Screen. To be noted: mouse BRCA2 R2336H ES cells, olaparib, CellTiter-Glo viability; active compounds read high. In outline:
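Mouse BRCA2 R2336H ES cells were reverse-transfected with siRNA (20 nM final), treated at 48 h with 500 nM olaparib, and read by CellTiter-Glo after 72 h. Scores: MAD-based z per siRNA, median per gene, seed off-target correction.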
On the technique in general: In ATP-based viability assays light output follows the ATP content of the culture.
Regarding GGUACUGACGCAUCUGAGGTT against Spata5l1, the z-score was inactive: 0.809.
Turning to “CGAAGGGACCGAAGAAUCCTT against 5730538E15Rik”, the z-score is inactive: -0.602.
As for CGAGGAUGAGUUCAGUGAGTT against Pdcl3, the figure is inactive: -1.07; as for “GGAGGUUUUGAUGGACUGUTT against 2610528H13Rik”, inactive: -0.424; as for GGGAGUGAUUUAAAGUUUCTT against L3mbtl3, inactive: -0.34.
With “GGGAGUCCUGAGUUUCAAATT against 4933400F01Rik”, the z-score is inactive: 2.12.
With GCUGUUACUCUUAAACAAATT against Pdhx, the z-score is inactive: 0.303.
Under GGAAUUGAACAACCUGUUGTT against Anapc5 stands inactive: -1.46.
On to GGUUCAGUUAAGUAAACAGTT against Cdh17, for which the z-score is inactive: 3.1.
For “CCUACUCUGGUAAAACCUUTT against 1500034J20Rik”, the z-score was inactive: 1.25.
As for “GGGAAACAAAAAGCAGAUATT against 2610204L23Rik”, the figure is inactive: -1.72; as for “GGAGACUGAAGGAAAUUAATT against 2810025M15Rik”, inactive: 0.232; as for GGUGAAGCAUCAGUGACAATT against Ubxd2, inactive: -0.712.
As to GGAGGUGGAAUCUUUCCCUTT against Aplp1, the z-score was inactive: 1.38.
As for GGAAGAUCUAUACUGUGGUTT against Expi, the figure is inactive: 0.449; as for CCGGUAAUGGUGAUAAUUGTT against Sall2, inactive: -1.6.
As for GGGCAUCUAUCUAUUUACCTT against Mrpl55, the figure is inactive: 1.64.
As for GCACUUGUGCUUUCAAUAATT against Rhox1, the figure is inactive: -0.692.
As for GGAGAUGGAGCAGGAAGAGTT against Kelchl, the z-score is inactive: -0.117.
Under “CCUGAUAAUCCUUGUACCATT against 2410002I01Rik” stands inactive: 0.39; under CCUAUUUCCUUAUUUCCCGTT against Slc12a3, inactive: 0.942.
As for CCCUAGAAUUCCAAAGAAATT against Sox7, the z-score is inactive: 0.358.
For the sequence “GGAGACCACUAGCUUCAAUTT against B430306N03Rik”, the z-score is inactive: 0.283.
CCAGAAUGACGAUGCUGAATT against Ssrp1: the z-score is inactive: -2.55.
Consider GGUUAUCCUCAUUGAUCCGTT against Rpl15, for which the z-score is inactive: -2.09.
Under GGAAGUCACCAUCAACCAGTT against Krt2-4 stands inactive: 0.152; under GGGAAAACUUGGGUAUUUCTT against Pgrmc1, inactive: 0.906; under “CCGGACCUUAAAAAUGGGCTT against 4930465K10Rik”, inactive: -0.256.
GUAGAAAACAUCUCACAAUTT against Krtap21-1: the z-score was inactive: 2.02.
Under GGCCAAAGUCGAAUCAUAUTT against Hrmt1l1 stands inactive: -0.564.
As for CCCUAUGGACUGAGUUUGUTT against Olfr183, the figure is inactive: -0.527; as for GGUAACUAACCUUAAUCUUTT against Slc16a1, inactive: 2.33; as for GCUACCUGCUCUAUACAUGTT against Crlf1, inactive: -0.169.
As for “GCACUCCUGAAAAUCACCUTT against E430019B13Rik”, the figure is inactive: 1.59; as for GGACCACAGAUGAAUUGGATT against Relb, inactive: 1.67; as for CCACAAAGAAUGCAUUACUTT against BC022146, inactive: -1.42.
Consider GGCAAAGAGUGGUAAGAGUTT against Olfr1166, for which the z-score is inactive: -0.938.
Take GGAAGCCUUCACAAUCAUGTT against Myl2: the z-score is inactive: 0.274.
As for CCGUUUCUGUAUGACCUGGTT against Rbbp7, the figure is inactive: -1.88; as for GAAACUUCCUAAAUAACUUTT against V1rh5, inactive: 0.645; as for GGCAAUUCUUGACAAGAAUTT against Rbms3, inactive: 0.956.
Under GGAAGAAAAGAAGCUUUUGTT against Palmd stands inactive: 0.145; under AUGCACCAUGCCGUUGACUTT against Oxct2b, inactive: 1.19.
As for “GGAGGUGGAAUACUGCAUCTT against 4931406B18Rik”, the figure is inactive: -0.117.
For the sequence GGUGAAGAUGCAGACCUUUTT against Slc25a15, the z-score is inactive: -0.0438.
As for CCUCUCCUAUUCCUAGUGUTT against Olfr183, the z-score was inactive: -0.186.
Regarding GGAAAUCAUGAAGCUGAAATT against Clpp, the z-score is inactive: 0.694.
Under GGCCCAGGUGGAUAGUUAUTT against AU016693 stands inactive: -0.206; under “GGUGACCAUCAAAUGUGGCTT against B230317C12Rik”, inactive: -0.495.
As to GGCCCUCAAUACCUGUGGUTT against Olfr690, the z-score is inactive: 0.67.
Under “GGUUCACCACAGGUCUUGUTT against 4932408F19Rik” stands inactive: -0.919.
With GGACAUUGUUAAAGGCAUATT against Kpna2, the z-score is inactive: 0.434.
Under “GCAAAACUCAUUGAAAGUGTT against 4930569K13Rik” stands inactive: 0.558.
Under GGAUAUUUUUGGCAGCCCUTT against Slco1b2 stands inactive: 2.09.
For CCACAAAACCACACCAGUGTT against Olfr24, the z-score is inactive: -3.21.
For the sequence CCUCAGUGCUUACUUUGAATT against Dusp3, the z-score is inactive: -0.82.
Consider GGACAACCCAGUCUCAAAATT against Mrpl43, for which the z-score was inactive: -0.571.
Under GGACCUCCACCGUUACUACTT against Sgsh stands inactive: -0.509; under GGAUGCUCAGGAGAAGCUGTT against Tpm3, inactive: -1.4; under “GCCAGUAUUAGCCUAGAUCTT against 2200002K05Rik”, inactive: -1.12.
As for GGCAAUUUCCAAGCAGUUUTT against Wnt8b, the z-score is inactive: 0.377.
Under GGCAAAUUUAGAUAAGUACTT against Cyp39a1 stands inactive: 0.471.
Turning to GGAUGAAGAAAACUGGCUUTT against Tsx, the z-score is inactive: -0.857.
As for GCAUGGGCAUAACCGAAAGTT against Rex2, the figure is inactive: 0.836; as for GGAAAGCUUUAAAAAAUCCTT against Mlh1, inactive: 0.956.
“GCAUCCUUAGUGAUUUCUATT against 4930570C03Rik”: the z-score was inactive: -1.32.
GGUGGGAUGCAGAUCUUUGTT against Ubc: the z-score was inactive: -0.357.
GGGAGGAUACCUUCUAUGUTT against Crebl1: the z-score was inactive: 1.48.
Take CCAUUGAUCGUUUAGUCAATT against Trim33: the z-score was inactive: 0.806.
GGAAGAGGUGCAGCAAAUUTT against Wdr23: the z-score was inactive: -0.92.
Under GGAAAAAAGAUGAAUUGCCTT against Cbx8 stands inactive: 0.773; under GGUAGAAAACAUAAAUGGUTT against AU024582, inactive: 0.814.
Under GUACCUCAUUUUUAGCACATT against V1rc26 stands inactive: 0.452; under GGAUCCCAGUUCUGGGUAATT against Dok1, inactive: 0.232.
As for CCAAAGUAAACUGGAUGUUTT against Gm638, the z-score was inactive: 1.11.
With GGUGAAAGCAGAAAUGGAGTT against Dpysl5, the z-score is inactive: 1.2.
As for GGUUCCAAAGUGUUUCUGATT against Nsmaf, the figure is inactive: 0.176.
As for GGUCAAAAGGAUUCCUGCATT against Gzmk, the figure is inactive: 0.249; as for “GGCCUAUGUCCACAAGAGUTT against 2010012C16Rik”, inactive: -0.175.
Under CGUACAUCGUCGAGAUUUUTT against Rims1 stands inactive: 0.376; under “GGGCAUUAGGAAUUAGGGCTT against 0610010D20Rik”, inactive: 0.727; under “GGUGUUUGGCUACCAUACCTT against C630015F21Rik”, inactive: 0.281.
GGACAUUCUUUAAGAAGAUTT against Tjp3: the z-score is inactive: -1.56.
As for GCAGGAUUGUUAAGAGAAATT against Gnaq, the figure is inactive: -1.15.
For “GGACCAUACAUAUUCAAAATT against 4632417K02”, the z-score was inactive: -0.213.
As for GGAAGUGGUUGCUAAGCGATT against Park2, the figure is inactive: -1.46; as for GGUAAAAAUAGCAACAGAATT against Cpxm2, inactive: -0.395.
As for GGUGUGUUCCAUAUGACAATT against P2rx7, the figure is inactive: -0.38; as for “CCCUCUGGUUACUAUUAUUTT against D14Ertd449e”, inactive: 1.32; as for GGAUGACCAGACCUUGACGTT against Fgfrl1, inactive: -0.531.
As for GCAGGUUAUACGCUUAGAUTT against Irx5, the figure is inactive: -0.324; as for GGGUUUUCUUUGUUUUAGUTT against Trim8, inactive: -0.56; as for “GGAGAUUCUGUCAGACAGGTT against 4930467B06Rik”, inactive: -0.179.
Take GGCCAAGUUAGUUGAACCCTT against Dock11: the z-score is inactive: -0.563.
Under CGUGGUAGACACUGUGGUATT against Plin stands inactive: -0.4.
Under CGGGCUACCAUUAUGGUGATT against Atp6ap2 stands inactive: 0.738.
For GGUUCCUUACCUAUUCCUATT against BC023818, the z-score was inactive: 1.3.
Under GCAUUUCGCCUCUUUCAUATT against Elac1 stands inactive: -0.426; under “GGAUGUCCUACUAGUUAUUTT against 9130401M01Rik”, inactive: -0.574; under CCCUUUCGACAGAUUAGACTT against Zfp69, inactive: 0.678.
With GGCAAUUUCACGAUUUGCUTT against Eif2b4, the z-score is inactive: -1.
Under CCUUAGCUAGAGAAAGUUATT against BC034507 stands inactive: -0.423; under GGCAUGCUUGGCUUAUUUGTT against Kcnk4, inactive: 0.024.
Consider GGAGCUUGCCAUAUUCCUCTT against Leprotl1, for which the z-score is inactive: 1.31.
